# Source: PubChem BioAssay AID485314 (National Center for Advancing Translational Sciences (NCATS), 2010)
# Out of some 340,000 compounds screened, about 4,500 (1.3%) were called active. Inconclusive results, whose numbers are uncertain, are shown with a selection of clear calls. The call rests on the fitted dose curve; in most records, active means well fitted inhibition curve with a large enough effect; inconclusive means small, poorly fitted or top-dose-only effect, or another doubt; inactive means no such curve, though single readings can be large or run the other way. Where the call is inconclusive, the potency comes from a doubtful curve fit.
# Target: DNA polymerase beta (Homo sapiens) (UniProt P06746)
# Assay: qHTS Assay for Inhibitors of DNA Polymerase Beta
# Details: Pol beta primer extension/strand displacement, fluorescence kinetic; activity change, negative = inhibition: at 114 µM (top of the series)
# How it was run: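 Human Pol beta at 10 nM; strand-displacement substrate 50 nM final. Compound exposure 15 min at room temperature before start, reaction 10 min at room temperature.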
# On the % scale 0 is the no-effect control and ±100 the full control effect; potency means the concentration at half of the fitted maximal effect.
Compound,Potency,"activity change, negative = inhibition"
Cn1nnnc1SCC(=O)Nc1ccc2c(c1)OCO2,"inconclusive: 11.2 µM [inhibitor, partial curve]",–
CCN(CC)c1nc2c(c(=O)[nH]c(=O)n2C)n1Cc1ccccc1Cl,"inconclusive: 2 µM [inhibitor, full curve, poor fit]",–
C/C(CCc1ccco1)=N/NC(=O)CCC(=O)Nc1ccc(Br)cc1,–,inactive: -2.94%
O=c1ccc2ccc(O)c(O)c2o1,active: 14.1 µM,–
O=C(COc1c(Cl)cccc1Cl)Nc1ccccc1N1CCCC1,"inconclusive: 63.1 µM [inhibitor, partial curve, poor fit]",–
Cc1ccc(C)c(Cn2nnc3c(=O)[nH]c(C4CCCN(C(=O)C5CCCCC5)C4)nc32)c1 (configuration not stated),–,inactive: 4.74%
CCOc1ccc(C(=O)Nc2ccc(N3CCN(C)CC3)cc2)cc1[N+](=O)[O-],"inconclusive: 31.6 µM [inhibitor, partial curve]",–
Cc1ccc(NCc2ccncc2)c(Br)c1,"inconclusive: 4.47 µM [inhibitor, full curve, poor fit]",–
O=C(N/C(=C\c1cccc([N+](=O)[O-])c1)C(=O)N1CCCCC1)c1cccs1,"inconclusive: 89.1 µM [inhibitor, single point]",–
O=C(O)c1c2c(nc3ccc(S(=O)(=O)N4CCC(C(=O)NC5CCCCCC5)CC4)cc13)CCCC2,active: 39.8 µM,–
COc1cccc(/C=C2\SC(=S)N(NS(=O)(=O)c3ccc(C)cc3)C2=O)c1OC,"inconclusive: 100 µM [inhibitor, single point]",–
C=C/C(C)=C/CC1C(=C)CCC2C(C)(C(=O)O)CCCC12C (configuration not stated),"inconclusive: 17.8 µM [inhibitor, full curve]",–
CCc1ccc(NC(=O)c2sc3nc(C)cc(C)c3c2NC(=O)c2ccccc2)cc1,–,inactive: 0.247%
COc1ccc(-c2nnc(SCc3nnc(-c4ccccc4)o3)n2C)cc1OC,"inconclusive: 89.1 µM [inhibitor, single point]",–
Cc1ccc(-n2c(SCC(=O)Nc3ccc4c5c(cccc35)CC4)nc(O)cc2=O)cc1,active: 35.5 µM,–
CCOc1ccc(N(CC(=O)Nc2cc(C)cc(C)c2)S(C)(=O)=O)cc1,"inconclusive: 22.4 µM [inhibitor, full curve, poor fit]",–
O=C(NC1CCN(C(=O)c2ccccc2Br)CC1)c1ccccc1,"inconclusive: 89.1 µM [inhibitor, single point]",–
Cn1ccc(=Nc2ccc(NC(=O)c3ccc(N=c4ccn(C)c5ccc([N+](=O)[O-])cc45)cc3)cc2)cc1,active: 0.355 µM,–
Cc1ccc([N+](=O)[O-])cc1S(=O)(=O)Nc1ccccn1,–,inactive: 8.63%
O=C1NC(=Nc2ccccc2)/C(=C/c2ccco2)S1,"inconclusive: 20 µM [inhibitor, full curve]",–
CCS(=O)(=O)C1=NN2C(=N)/C(=C\c3ccc(OC(=O)c4ccco4)cc3)C(=O)N=C2S1,–,inactive: -26%
Cc1cccc(C)c1NC(=O)Cn1c(=O)n(CCC(=O)NCc2ccc3c(c2)OCO3)c(=O)c2sccc21,"inconclusive: 89.1 µM [inhibitor, single point]",–
CCOc1ccccc1NC(=O)Cn1nnc(C(=O)NCCc2ccc(OCC)c(OCC)c2)c1N,–,inconclusive: -73.1% [inhibitor]

Compound,Potency,"activity change, negative = inhibition"
Cc1ccc(NC(=O)COC(=O)CN2C(=O)C3CCCCC3C2=O)cc1S(=O)(=O)N1CCOCC1 (configuration not stated),"inconclusive: 0.794 µM [inhibitor, full curve, poor fit]",–
CC1(C)C(=O)Nc2ccccc2N1C(=O)Cn1ncc(Cl)c(Cl)c1=O,"inconclusive: 1.78 µM [inhibitor, full curve, poor fit]",–
Cc1cc(=O)[nH]c2ccc(S(=O)(=O)NCc3ccccc3)cc12,"inconclusive: 39.8 µM [inhibitor, partial curve]",–
Cc1cc(/C=C2\SC(=Nc3ccccc3)NC2=O)c(C)n1-c1ccc(S(N)(=O)=O)cc1,"inconclusive: 89.1 µM [inhibitor, single point]",–
O=C(COC(=O)CCCN1C(=O)c2ccccc2C1=O)Nc1ncc(Cl)cc1Cl,"inconclusive: 12.6 µM [inhibitor, full curve]",–
CC(=C\c1ccco1)/C=C(\C#N)C(=O)NCCc1c[nH]c2ccccc12,"inconclusive: 15.8 µM [inhibitor, partial curve, poor fit]",–
COc1ccccc1Nc1nc2nonc2[nH]c1=O,"inconclusive: 63.1 µM [inhibitor, single point]",–
Cc1ccc2nc(Cl)c3cc(C(=O)N4CCCC(C)C4)sc3c2c1 (configuration not stated),"inconclusive: 89.1 µM [inhibitor, single point]",–
Cc1onc(-c2c(F)cccc2Cl)c1C(=O)Nc1sc2c(c1C#N)CCC(C(C)(C)C)C2 (configuration not stated),"inconclusive: 39.8 µM [inhibitor, single point]",–
N#CC1=C(N)OC(c2ccccc2)=C(C#N)C1c1ccc2c(c1)OCO2 (configuration not stated),"inconclusive: 79.4 µM [inhibitor, single point]",–
CCOC(=O)c1sc(NC(=O)c2cc3c(s2)CCC(C)C3)nc1C (configuration not stated),"inconclusive: 70.8 µM [inhibitor, partial curve, poor fit]",–
Brc1ccc(CSc2ccc(-c3ccco3)nn2)cc1,"inconclusive: 20 µM [inhibitor, partial curve, poor fit]",–
O=C(Cn1c(=O)oc2cc(S(=O)(=O)N3CCCC3)ccc21)Nc1ccc(C(F)(F)F)cc1,"inconclusive: 11.2 µM [inhibitor, partial curve]",–
COc1ccccc1CNC(=O)CN1C(=O)CSc2ccc(S(=O)(=O)N(C)C)cc21,–,inactive: -2.22%
O=C(O)c1ccc(N=c2oc3cc(O)ccc3cc2C(=O)NCc2ccccc2)cc1,"inconclusive: 31.6 µM [inhibitor, partial curve]",–
COc1ccc(Cl)cc1NC(=O)CSc1ccc(-c2sc(C)nc2C)nn1,"inconclusive: 35.5 µM [inhibitor, partial curve]",–
Cc1nc2ccsc2c(=O)n1-c1ccc(Cl)cc1,"inconclusive: 89.1 µM [inhibitor, single point]",–
COc1cc(/C=N/NC(=O)c2ccc(COc3ccccc3Cl)o2)cc(Br)c1O,active: 28.2 µM,–
Cc1nn(C)c(Cl)c1CN1CCN(CCC(C)C)C(CCO)C1 (configuration not stated),–,inactive: 13.8%
CC(=O)c1cc2c(ccc3ccccc32)oc1=O,–,inactive: -0.807%
Cn1c(=O)c2c(nc(CN3CCN(C(c4ccccc4)c4ccccc4)CC3)n2CC(N)=O)n(C)c1=O,"inconclusive: 89.1 µM [inhibitor, single point]",–
O=C(CSc1ncnc2ccccc12)Nc1cccc(S(=O)(=O)N2CCCC2)c1,"inconclusive: 0.447 µM [inhibitor, full curve, poor fit]",–
CNC(=O)COc1ccc(S(=O)(=O)N2CCCC2)cc1,–,inactive: 21.9%

Compound,Potency,"activity change, negative = inhibition"
Cc1ccc(Cn2nnc3c(=O)[nH]c(C4CCCN(S(=O)(=O)c5ccc(F)cc5)C4)nc32)cc1 (configuration not stated),"inconclusive: 100 µM [inhibitor, partial curve]",–
O=C(O)c1ccccc1/C=N/NC(=O)c1cc(-c2ccco2)nc2ccccc12,active: 8.91 µM,–
Nc1cc([N+](=O)[O-])ccc1O,–,inactive: 20.6%
c1ccc(-c2cc(-c3ccccc3)[nH]n2)cc1,"inconclusive: 28.2 µM [inhibitor, single point]",–
O=C(Nc1ccc2oc(-c3cccnc3)nc2c1)c1ccc(-c2ccc(Cl)cc2)o1,–,inconclusive: -56.4% [inhibitor]
COc1ccccc1-c1cc(C(=O)N2CCCCC2)no1,"inconclusive: 89.1 µM [inhibitor, single point]",–
O=c1ccnc(SCCC(F)=C(F)F)[nH]1,"inconclusive: 28.2 µM [inhibitor, single point]",–
CCOc1cc2sc(N3CCC(C(=O)Nc4ccc(C)cc4)CC3)nc2cc1Br,–,inactive: 34.3%
CC(NC(=O)c1ccc2c(c1)N(Cc1ccc(Cl)cc1)C(=O)c1ccccc1S2(=O)=O)c1ccccc1 (configuration not stated),"inconclusive: 39.8 µM [inhibitor, single point]",–
Cc1ccccc1OCC(O)Cn1c(NCc2ccco2)nc2c1c(=O)n(C)c(=O)n2C (configuration not stated),"inconclusive: 2.82 µM [inhibitor, full curve]",–
Cc1ccc(CSc2ccc(-c3ccco3)nn2)cc1,"inconclusive: 10 µM [inhibitor, partial curve]",–
Cc1ccc(CNC(=O)COC(=O)c2ccc(S(=O)(=O)N(C)C)cc2)cc1,–,inactive: -0.584%
Cc1cc(C)cc(NC(=O)CSc2nncn3c2cc2occc23)c1,"inconclusive: 5.01 µM [inhibitor, partial curve, poor fit]",–
CN(C)C(=O)CSc1nc(-c2ccccc2)c(-c2ccccc2)o1,"inconclusive: 89.1 µM [inhibitor, single point]",–
O=C(CCNS(=O)(=O)c1ccc2c(c1)CCN2C(=O)C1CC1)N1CCN(c2ccc(F)cc2)CC1,–,inactive: -3.47%
O=[N+]([O-])c1cccc(COc2ncnc3cc([N+](=O)[O-])ccc23)c1,–,inactive: -3.68%
CC1(C)OC(C)(C)/C(=C/Nc2ccc(O)cc2)C1=O,"inconclusive: 89.1 µM [inhibitor, single point]",–
Cc1ccc2c(c1)NC(=O)C(CC(=O)NCCCN1CCN(c3cc(Cl)ccc3C)CC1)O2 (configuration not stated),"inconclusive: 50.1 µM [inhibitor, partial curve]",–
O=C1C(Nc2ccccc2)=C(N2CCCCC2)C(=O)c2ccccc21,"inconclusive: 22.4 µM [inhibitor, full curve]",–
COc1ccc(CNC(=O)c2nnn(CC(=O)Nc3cc(C)cc(C)c3)c2N)cc1,active: 10 µM,–

# Molecules listed so far with a COOH group:
Compound,Potency,"activity change, negative = inhibition"
O=C(O)c1c2c(nc3ccc(S(=O)(=O)N4CCC(C(=O)NC5CCCCCC5)CC4)cc13)CCCC2,active: 39.8 µM,–
C=C/C(C)=C/CC1C(=C)CCC2C(C)(C(=O)O)CCCC12C (configuration not stated),"inconclusive: 17.8 µM [inhibitor, full curve]",–
O=C(O)c1ccc(N=c2oc3cc(O)ccc3cc2C(=O)NCc2ccccc2)cc1,"inconclusive: 31.6 µM [inhibitor, partial curve]",–
O=C(O)c1ccccc1/C=N/NC(=O)c1cc(-c2ccco2)nc2ccccc12,active: 8.91 µM,–

# Whole records as entered above:
# `O=c1ccnc(SCCC(F)=C(F)F)[nH]1` as listed: Potency: inconclusive: 28.2 µM [inhibitor, single point]
# `CN(C)C(=O)CSc1nc(-c2ccccc2)c(-c2ccccc2)o1` as listed: Potency: inconclusive: 89.1 µM [inhibitor, single point]
